Reference: patent US20230212258A1 (MCMASTER UNIVERSITY, published 2023)
Results are given in words; binding and its absence hold for the method and conditions named. Some binding calls cover weakened binding; strength is not graded here.

The chains behind the UniProt entries cited, without tags or fusion partners. Where a name states a change or a piece, a line headed by the entry shows the natural chain unless it says otherwise.
UniProt P01732: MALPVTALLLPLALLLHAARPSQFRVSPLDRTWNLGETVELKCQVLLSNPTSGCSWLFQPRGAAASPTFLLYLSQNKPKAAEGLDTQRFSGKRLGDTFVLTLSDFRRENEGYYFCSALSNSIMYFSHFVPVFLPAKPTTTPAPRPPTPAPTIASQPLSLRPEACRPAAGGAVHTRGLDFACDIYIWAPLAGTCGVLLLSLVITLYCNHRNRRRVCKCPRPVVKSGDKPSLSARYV

What was measured:
Her2Fc [1] = biological target: T1, Her2Fc (UniProt P04626 23-652, limits assumed); assay: flow cytometry, engineered T cells probed with FcHer2 (FIG. 9A)
T1 construct: It is printed both as Her2Fc and as FcHer2; also called FcHer2; FcHer2 antigen; not shown: Fc part

Her2Fc [2] = biological target: T1, Her2Fc; assay: flow cytometry, transduced T cells incubated with Her2Fc (FIG. 2)
Experimental: T-cells had been incubated with Her2Fc, which later was detected via flow cytometry. The presented data was gated on CD8+ lymphocytes. The shown gates were chosen based on the untransduced control.

binding (Her2Fc [1]): binds
binding (Her2Fc [2]): binds
Substance: DARPin CAR (from UniProt P01732 138-182; P10747 153-220; P20963 52-164) (receptor)
